The target of assay [1] is p65(wt)-HA-miniTurbo (human) (UniProt Q04206).
Assay [2] has the same target. The source holds these as a separate data set.
Assay [3] has the same target. The source holds these as a separate data set.
For assay [4] the target is unchanged. This is another data set of the same source.
Assay [5] has the same target. This is another data set of the same source.

Amino acid sequences for entries named in this document (tags omitted).
UniProt Q04206: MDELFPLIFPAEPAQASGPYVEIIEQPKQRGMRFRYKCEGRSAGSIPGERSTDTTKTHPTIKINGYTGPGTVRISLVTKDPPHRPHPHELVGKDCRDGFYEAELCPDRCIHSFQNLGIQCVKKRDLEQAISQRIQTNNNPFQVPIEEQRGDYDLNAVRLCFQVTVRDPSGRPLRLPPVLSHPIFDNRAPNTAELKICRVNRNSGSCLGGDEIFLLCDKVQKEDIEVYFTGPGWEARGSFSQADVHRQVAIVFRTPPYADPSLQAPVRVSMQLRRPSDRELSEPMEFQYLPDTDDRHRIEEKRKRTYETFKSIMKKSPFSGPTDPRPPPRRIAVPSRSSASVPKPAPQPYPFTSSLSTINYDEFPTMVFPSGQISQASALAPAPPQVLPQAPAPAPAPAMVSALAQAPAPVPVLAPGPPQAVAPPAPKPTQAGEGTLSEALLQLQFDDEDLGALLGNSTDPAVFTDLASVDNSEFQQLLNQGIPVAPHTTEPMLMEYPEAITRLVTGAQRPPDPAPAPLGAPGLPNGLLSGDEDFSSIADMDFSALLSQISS
UniProt O95365: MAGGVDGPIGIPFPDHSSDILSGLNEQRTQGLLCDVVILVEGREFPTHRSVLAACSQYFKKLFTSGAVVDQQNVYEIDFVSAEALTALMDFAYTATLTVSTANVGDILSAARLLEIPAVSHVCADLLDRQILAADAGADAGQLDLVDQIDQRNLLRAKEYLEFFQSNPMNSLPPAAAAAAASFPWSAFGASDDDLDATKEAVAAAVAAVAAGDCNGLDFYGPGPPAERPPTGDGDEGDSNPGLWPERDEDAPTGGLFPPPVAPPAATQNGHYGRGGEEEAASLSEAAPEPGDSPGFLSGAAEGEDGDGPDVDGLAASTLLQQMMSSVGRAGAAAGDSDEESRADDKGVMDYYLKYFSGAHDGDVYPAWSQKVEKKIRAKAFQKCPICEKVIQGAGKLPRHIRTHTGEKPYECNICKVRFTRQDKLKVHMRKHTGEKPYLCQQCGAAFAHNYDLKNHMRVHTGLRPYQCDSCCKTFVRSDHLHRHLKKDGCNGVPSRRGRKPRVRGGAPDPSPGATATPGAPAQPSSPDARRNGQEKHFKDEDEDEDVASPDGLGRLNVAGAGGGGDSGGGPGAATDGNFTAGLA
UniProt Q14686: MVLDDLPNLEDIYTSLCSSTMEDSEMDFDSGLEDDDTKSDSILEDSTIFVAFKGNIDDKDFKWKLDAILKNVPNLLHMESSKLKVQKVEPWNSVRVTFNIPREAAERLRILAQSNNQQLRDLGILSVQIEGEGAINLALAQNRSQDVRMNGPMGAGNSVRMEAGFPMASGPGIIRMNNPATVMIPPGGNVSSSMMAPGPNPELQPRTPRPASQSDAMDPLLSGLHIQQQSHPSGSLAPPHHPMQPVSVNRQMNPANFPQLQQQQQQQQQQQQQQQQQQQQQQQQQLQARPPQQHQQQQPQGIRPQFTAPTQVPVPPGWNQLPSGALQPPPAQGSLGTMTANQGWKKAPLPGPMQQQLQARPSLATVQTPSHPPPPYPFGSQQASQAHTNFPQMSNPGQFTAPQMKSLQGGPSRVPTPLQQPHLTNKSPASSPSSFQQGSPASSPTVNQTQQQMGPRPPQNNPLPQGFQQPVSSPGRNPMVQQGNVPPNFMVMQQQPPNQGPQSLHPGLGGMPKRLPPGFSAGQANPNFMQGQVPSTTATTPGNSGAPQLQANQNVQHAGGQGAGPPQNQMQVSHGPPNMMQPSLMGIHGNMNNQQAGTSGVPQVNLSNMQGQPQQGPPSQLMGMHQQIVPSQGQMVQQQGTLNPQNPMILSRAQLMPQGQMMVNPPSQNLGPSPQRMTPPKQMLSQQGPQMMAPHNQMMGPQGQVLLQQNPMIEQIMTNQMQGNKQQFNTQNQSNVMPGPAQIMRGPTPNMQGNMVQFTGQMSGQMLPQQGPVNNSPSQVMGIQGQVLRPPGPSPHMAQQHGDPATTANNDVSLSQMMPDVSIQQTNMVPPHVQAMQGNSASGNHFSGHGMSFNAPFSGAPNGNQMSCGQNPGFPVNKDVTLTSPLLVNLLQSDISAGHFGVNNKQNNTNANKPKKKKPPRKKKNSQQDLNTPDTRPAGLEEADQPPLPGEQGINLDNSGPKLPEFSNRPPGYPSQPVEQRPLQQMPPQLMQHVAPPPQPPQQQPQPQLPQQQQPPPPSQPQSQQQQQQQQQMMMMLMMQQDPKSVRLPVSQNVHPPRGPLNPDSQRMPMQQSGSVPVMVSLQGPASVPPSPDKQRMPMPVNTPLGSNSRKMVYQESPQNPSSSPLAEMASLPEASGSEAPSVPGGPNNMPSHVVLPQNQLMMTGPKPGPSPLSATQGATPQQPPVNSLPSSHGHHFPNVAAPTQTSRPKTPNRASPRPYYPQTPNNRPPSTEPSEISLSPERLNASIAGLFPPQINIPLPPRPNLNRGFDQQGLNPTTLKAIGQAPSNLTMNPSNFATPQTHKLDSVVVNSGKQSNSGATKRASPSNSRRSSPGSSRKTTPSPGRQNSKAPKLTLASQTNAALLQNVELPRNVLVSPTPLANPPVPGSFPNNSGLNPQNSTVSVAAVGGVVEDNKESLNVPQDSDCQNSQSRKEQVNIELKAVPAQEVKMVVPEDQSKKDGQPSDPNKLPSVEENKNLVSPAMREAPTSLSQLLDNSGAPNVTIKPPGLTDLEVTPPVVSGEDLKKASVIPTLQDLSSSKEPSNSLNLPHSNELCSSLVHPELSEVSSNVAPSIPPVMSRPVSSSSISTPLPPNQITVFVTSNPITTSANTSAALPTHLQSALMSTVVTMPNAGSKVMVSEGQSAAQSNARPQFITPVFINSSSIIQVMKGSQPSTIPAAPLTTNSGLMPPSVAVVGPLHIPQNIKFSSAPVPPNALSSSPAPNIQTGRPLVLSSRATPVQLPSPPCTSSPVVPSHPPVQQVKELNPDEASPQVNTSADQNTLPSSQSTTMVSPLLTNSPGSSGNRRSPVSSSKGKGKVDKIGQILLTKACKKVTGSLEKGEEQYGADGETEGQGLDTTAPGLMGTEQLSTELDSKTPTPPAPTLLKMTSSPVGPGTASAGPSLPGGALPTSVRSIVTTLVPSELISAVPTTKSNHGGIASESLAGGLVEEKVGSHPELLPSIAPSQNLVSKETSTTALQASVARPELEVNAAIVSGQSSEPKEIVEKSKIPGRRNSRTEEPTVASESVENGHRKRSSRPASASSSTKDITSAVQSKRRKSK
UniProt Q92993: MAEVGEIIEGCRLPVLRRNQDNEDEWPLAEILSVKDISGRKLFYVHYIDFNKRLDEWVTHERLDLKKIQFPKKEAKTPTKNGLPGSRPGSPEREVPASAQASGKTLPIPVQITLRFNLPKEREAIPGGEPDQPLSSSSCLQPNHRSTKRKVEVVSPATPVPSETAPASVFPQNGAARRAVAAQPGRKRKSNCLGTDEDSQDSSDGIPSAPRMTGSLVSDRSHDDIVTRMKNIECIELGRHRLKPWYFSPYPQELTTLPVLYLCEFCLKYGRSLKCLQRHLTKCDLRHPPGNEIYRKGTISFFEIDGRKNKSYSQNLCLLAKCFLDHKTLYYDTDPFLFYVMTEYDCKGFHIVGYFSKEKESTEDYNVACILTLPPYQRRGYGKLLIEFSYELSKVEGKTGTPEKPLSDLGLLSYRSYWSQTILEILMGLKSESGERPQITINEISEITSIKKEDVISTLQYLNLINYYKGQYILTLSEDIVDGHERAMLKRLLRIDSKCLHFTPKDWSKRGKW
UniProt Q6ZW49: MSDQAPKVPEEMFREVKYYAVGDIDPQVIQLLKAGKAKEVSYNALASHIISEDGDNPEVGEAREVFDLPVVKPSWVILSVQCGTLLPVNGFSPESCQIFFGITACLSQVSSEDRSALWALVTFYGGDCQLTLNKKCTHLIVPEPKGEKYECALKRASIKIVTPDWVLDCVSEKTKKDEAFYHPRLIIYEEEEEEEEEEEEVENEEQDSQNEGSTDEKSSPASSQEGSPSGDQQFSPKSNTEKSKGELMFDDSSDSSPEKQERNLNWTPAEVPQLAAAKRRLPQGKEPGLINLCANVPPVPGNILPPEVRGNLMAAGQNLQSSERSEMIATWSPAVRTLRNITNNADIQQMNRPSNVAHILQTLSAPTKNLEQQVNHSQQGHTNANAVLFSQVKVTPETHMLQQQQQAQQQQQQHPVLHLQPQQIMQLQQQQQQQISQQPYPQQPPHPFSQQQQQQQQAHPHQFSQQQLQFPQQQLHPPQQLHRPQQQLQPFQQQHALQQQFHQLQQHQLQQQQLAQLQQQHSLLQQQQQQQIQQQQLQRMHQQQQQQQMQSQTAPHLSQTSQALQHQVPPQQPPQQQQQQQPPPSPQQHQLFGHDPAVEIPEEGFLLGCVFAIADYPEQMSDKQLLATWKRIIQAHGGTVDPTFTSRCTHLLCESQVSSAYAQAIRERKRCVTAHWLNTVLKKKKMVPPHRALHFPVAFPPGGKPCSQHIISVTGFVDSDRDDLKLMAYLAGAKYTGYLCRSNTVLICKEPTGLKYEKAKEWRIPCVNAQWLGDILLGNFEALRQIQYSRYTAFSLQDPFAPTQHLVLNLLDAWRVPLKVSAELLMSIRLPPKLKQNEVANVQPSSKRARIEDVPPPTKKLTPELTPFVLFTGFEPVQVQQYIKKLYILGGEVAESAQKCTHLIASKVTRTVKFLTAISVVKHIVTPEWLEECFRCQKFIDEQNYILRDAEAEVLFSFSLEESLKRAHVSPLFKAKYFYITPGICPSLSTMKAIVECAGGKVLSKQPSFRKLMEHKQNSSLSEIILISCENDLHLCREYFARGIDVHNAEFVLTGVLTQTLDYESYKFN
UniProt Q9BTK6: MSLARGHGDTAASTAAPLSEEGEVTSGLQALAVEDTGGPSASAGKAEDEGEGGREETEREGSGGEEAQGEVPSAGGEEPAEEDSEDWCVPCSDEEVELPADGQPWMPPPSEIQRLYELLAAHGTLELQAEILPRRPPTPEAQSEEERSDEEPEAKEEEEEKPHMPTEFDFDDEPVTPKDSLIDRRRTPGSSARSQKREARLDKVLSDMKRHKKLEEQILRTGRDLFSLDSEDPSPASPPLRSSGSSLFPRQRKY
UniProt O15156: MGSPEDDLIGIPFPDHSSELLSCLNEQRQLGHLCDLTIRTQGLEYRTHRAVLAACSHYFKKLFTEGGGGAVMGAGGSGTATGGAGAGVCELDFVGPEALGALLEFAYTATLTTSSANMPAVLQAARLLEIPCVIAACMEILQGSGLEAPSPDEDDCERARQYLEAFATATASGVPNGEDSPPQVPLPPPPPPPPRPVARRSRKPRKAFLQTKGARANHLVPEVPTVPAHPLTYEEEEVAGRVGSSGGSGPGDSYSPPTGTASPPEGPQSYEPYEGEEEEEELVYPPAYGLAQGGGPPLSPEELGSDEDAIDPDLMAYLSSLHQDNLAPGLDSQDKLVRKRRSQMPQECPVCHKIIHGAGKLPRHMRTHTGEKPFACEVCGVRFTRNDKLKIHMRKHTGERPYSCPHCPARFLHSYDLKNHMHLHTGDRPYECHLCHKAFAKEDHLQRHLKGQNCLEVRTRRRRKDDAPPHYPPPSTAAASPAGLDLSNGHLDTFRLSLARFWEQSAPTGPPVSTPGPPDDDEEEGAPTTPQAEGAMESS
UniProt Q92769: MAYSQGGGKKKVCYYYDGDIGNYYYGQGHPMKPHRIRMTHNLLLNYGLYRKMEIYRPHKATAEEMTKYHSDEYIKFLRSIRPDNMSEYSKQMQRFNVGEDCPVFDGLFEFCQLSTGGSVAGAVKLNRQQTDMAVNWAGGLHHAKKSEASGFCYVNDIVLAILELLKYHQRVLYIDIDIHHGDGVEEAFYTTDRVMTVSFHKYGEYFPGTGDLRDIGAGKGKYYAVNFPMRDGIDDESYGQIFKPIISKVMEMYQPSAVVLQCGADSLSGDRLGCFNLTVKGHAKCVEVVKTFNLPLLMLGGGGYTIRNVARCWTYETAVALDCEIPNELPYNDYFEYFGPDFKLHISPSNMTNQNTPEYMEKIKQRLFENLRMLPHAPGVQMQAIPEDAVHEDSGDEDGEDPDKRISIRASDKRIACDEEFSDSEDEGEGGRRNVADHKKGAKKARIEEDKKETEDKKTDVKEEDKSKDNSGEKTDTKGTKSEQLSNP
UniProt Q13547: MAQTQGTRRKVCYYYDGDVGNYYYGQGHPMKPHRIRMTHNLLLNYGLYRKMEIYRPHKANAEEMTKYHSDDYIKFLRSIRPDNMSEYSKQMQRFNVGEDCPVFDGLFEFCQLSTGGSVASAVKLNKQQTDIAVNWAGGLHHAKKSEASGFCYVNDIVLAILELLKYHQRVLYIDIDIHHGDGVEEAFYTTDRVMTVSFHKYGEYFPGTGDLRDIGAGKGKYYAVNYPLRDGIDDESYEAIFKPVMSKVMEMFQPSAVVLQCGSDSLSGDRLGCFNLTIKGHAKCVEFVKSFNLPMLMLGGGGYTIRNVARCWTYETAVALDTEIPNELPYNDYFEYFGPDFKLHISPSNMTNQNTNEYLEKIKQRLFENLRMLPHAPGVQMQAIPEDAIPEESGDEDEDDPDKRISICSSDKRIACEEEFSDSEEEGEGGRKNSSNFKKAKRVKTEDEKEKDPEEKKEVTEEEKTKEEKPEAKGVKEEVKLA

Like-named read-outs stand apart in the source and are kept apart here. These are yes or no findings as the source states them, for the method shown. Binding seen in cells or lysates may run through a third protein. Here binding means that the protein was enriched with, or labelled near, the bait; the list need not be complete.

As for ZBTB7A (from UniProt O95365 1-584), the binding result in assay [1] was “binds”.
Turning to NCOA6 (from UniProt Q14686 1-2063), in assay [2], the binding result is “binds”.
“TIP60 (KAT5) (from UniProt Q92993 1-513)”: the binding result in assay [3] is listed as “binds”.
Regarding PAXIP1 (from UniProt Q6ZW49 1-1069), in assay [2], the binding entry is “binds”.
Take PAGR1 (from UniProt Q9BTK6 1-254): in assay [2], the binding entry is on record as “binds”.
For ZBTB7B (from UniProt O15156 1-539), the binding entry in assay [1] is listed as “binds”.
As to HDAC2 (from UniProt Q92769 1-488), the binding result in assay [3] is listed as “binds”.
For HDAC1 (from UniProt Q13547 1-482), in assay [3], the binding entry was “binds”.

B1: ATF7 (protein, UniProt P17544 1-483)
chain: MGDDRPFVCNAPGCGQRFTNEDHLAVHKHKHEMTLKFGPARTDSVIIADQTPTPTRFLKNCEEVGLFNELASSFEHEFKKAADEDEKKAAAGPLDMSLPSTPDIKIKEEEPVEVDSSPPDSPASSPCSPPLKEKEVTPKPVLISTPTPTIVRPGSLPLHLGYDPLHPTLPSPTSVITQAPPSNRQMGSPTGSLPLVMHLANGQTMPVLPGPPVQMPSVISLARPVSMVPNIPGIPGPPVNSSGSISPSGHPIPSEAKMRLKATLTHQVSSINGGCGMVVGTASTMVTARPEQSQILIQHPDAPSPAQPQVSPAQPTPSTGGRRRRTVDEDPDERRQRFLERNRAAASRCRQKRKLWVSSLEKKAEELTSQNIQLSNEVTLLRNEVAQLKQLLLAHKDCPVTALQKKTQGYLESPKESSEPTGSPAPVIQHSSATAPSNGLSVRSAAEAVATSVLTQMASQRTELSMPIQSHVIMTPQSQSAGR
As for B1, the binding entry in assay [4] is “binds”.

B2: ATF3 (protein, UniProt P18847 1-181)
chain: MMLQHPGQVSASEVSASAIVPCLSPPGSLVFEDFANLTPFVKEELRFAIQNKHLCHRMSSALESVTVSDRPLGVSITKAEVAPEEDERKKRRRERNKIAAAKCRNKKKEKTECLQKESEKLESVNAELKAQIEELKNEKQHLIYMLNLHRPTCIVRAQNGRTPEDERNLFIQQIKEGTLQS
Regarding B2, the binding entry in assay [4] is listed as “binds”.

B3: ATF1 (protein, UniProt P18846 1-271)
chain: MEDSHKSTTSETAPQPGSAVQGAHISHIAQQVSSLSESEESQDSSDSIGSSQKAHGILARRPSYRKILKDLSSEDTRGRKGDGENSGVSAAVTSMSVPTPIYQTSSGQYIAIAPNGALQLASPGTDGVQGLQTLTMTNSGSTQQGTTILQYAQTSDGQQILVPSNQVVVQTASGDMQTYQIRTTPSATSLPQTVVMTSPVTLTSQTTKTDDPQLKREIRLMKNREAARECRRKKKEYVKCLENRVAVLENQNKTLIEELKTLKDLYSNKSV
Consider B3, for which, in assay [4], the binding entry is on record as “binds”.

B4: GLIS3 (protein, UniProt Q8NEA6 1-775)
chain: MMVQRLGLISPPASQVSTACNQISPSLQRAMNAANLNIPPSDTRSLISRESLASTTLSLTESQSASSMKQEWSQGYRALPSLSNHGSQNGLDLGDLLSLPPGTSMSSNSVSNSLPSYLFGTESSHSPYPSPRHSSTRSHSARSKKRALSLSPLSDGIGIDFNTIIRTSPTSLVAYINGSRASPANLSPQPEVYGHFLGVRGSCIPQPRPVPGSQKGVLVAPGGLALPAYGEDGALEHERMQQLEHGGLQPGLVNHMVVQHGLPGPDSQSAGLFKTERLEEFPGSTVDLPPAPPLPPLPPPPGPPPPYHAHAHLHHPELGPHAQQLALPQATLDDDGEMDGIGGKHCCRWIDCSALYDQQEELVRHIEKVHIDQRKGEDFTCFWAGCPRRYKPFNARYKLLIHMRVHSGEKPNKCTFEGCEKAFSRLENLKIHLRSHTGEKPYLCQHPGCQKAFSNSSDRAKHQRTHLDTKPYACQIPGCTKRYTDPSSLRKHVKAHSSKEQQARKKLRSSTELHPDLLTDCLTVQSLQPATSPRDAAAEGTVGRSPGPGPDLYSAPIFSSNYSSRSGTAAGAVPPPHPVSHPSPGHNVQGSPHNPSSQLPPLTAVDAGAERFAPSAPSPHHISPRRVPAPSSILQRTQPPYTQQPSGSHLKSYQPETNSSFQPNGIHVHGFYGQLQKFCPPHYPDSQRIVPPVSSCSVVPSFEDCLVPTSMGQASFDVFHRAFSTHSGITVYDLPSSSSSLFGESLRSGAEDATFLQISTVDRCPSQLSSVYTEG
As for B4, in assay [5], the binding result is given as “binds”.

The values above are taken from PMC11850942.
